Values joined by “and” are separate entries in the source; they are usually repeats but may differ in a detail not shown here. Equal entries are not always repeated. In all, about 390,000 compounds went through this assay and about 4,000 (1%) were called active. Inconclusive results, whose numbers are uncertain, are shown with a selection of clear calls. The call rests on the fitted dose curve; in most records, active means well fitted inhibition curve with a large enough effect; inconclusive means small, poorly fitted or top-dose-only effect, or another doubt; inactive means no such curve, though single readings can be large or run the other way. A potency beside an inconclusive call is a rough fit, not a confirmed value.
Target: DNA polymerase iota (Homo sapiens) (UniProt Q9UNA4)
Assay: qHTS for Inhibitors of Polymerase Iota
Details: Pol iota fluorescent replication assay, 10 min; series mostly up to 115 µM; activity, negative = inhibition: at the top concentration
In short: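 Fluorescent replication assay read twice, at 0 min and 10 min after adding 50 nM (final) substrate. Enzyme (10 nM) and compounds were first incubated 15 min at room temperature; enzyme-free buffer wells were negative controls.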
Potency means the concentration at half of the fitted maximal effect.

Chains of the proteins cited; added tags and fusions are not shown. Lines headed by an entry give the natural chain unless they say otherwise; changes in a name come on top.
UniProt Q9UNA4: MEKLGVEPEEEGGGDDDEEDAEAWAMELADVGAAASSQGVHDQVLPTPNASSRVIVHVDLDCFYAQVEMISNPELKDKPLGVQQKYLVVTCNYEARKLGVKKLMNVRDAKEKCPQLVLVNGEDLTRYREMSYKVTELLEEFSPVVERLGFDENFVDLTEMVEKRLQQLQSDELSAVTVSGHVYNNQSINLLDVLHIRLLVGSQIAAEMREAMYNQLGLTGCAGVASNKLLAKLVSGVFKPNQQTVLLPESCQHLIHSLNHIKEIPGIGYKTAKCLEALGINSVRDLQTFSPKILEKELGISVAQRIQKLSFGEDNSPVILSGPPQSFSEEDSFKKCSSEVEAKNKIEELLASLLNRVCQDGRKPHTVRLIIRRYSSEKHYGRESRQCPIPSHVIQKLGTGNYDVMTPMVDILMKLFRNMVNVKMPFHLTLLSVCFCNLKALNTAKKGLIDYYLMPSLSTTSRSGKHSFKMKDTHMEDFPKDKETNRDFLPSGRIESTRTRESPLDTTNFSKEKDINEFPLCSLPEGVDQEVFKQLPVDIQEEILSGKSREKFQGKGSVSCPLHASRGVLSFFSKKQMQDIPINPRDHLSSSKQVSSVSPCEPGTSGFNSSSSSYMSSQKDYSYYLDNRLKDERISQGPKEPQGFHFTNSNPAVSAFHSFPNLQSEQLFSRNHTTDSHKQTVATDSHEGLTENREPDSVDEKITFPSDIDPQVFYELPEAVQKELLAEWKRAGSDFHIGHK

| Compound | Potency | activity, negative = inhibition |
| --- | --- | --- |
| CC(=O)c1cccc(NC(=O)Cn2c(=O)oc3cc(S(=O)(=O)N4CCCC4)ccc32)c1 | inactive and inconclusive: 89.1 µM [inhibitor, single point] | – |
| Cc1ccc([N+](=O)[O-])cc1NC(=O)CSc1nncc2ccccc12 | inconclusive: 44.7 µM [inhibitor, partial curve, poor fit] | – |
| CCOc1ccc(C(=O)Nc2ccc(NC(=O)c3ccccc3)c(C)c2)cc1[N+](=O)[O-] | – | inactive: 153% |
| C=CCN(C(=O)c1cccc(S(=O)(=O)N2CCN(C)CC2)c1)c1nc(-c2ccccc2)cs1 | inconclusive: 79.4 µM [inhibitor, partial curve, poor fit] | – |
| Cc1ccc2oc(=O)c3cc(C(=O)N4CCN(c5ccccc5F)CC4)sc3c2c1 | inconclusive: 89.1 µM [inhibitor, single point] | – |
| N#Cc1c(-n2ncnc2-c2cccc(Br)c2)sc2c1CCCCC2 | inconclusive: 89.1 µM [inhibitor, single point] | – |
| Nc1c(C(=O)N/N=C/c2cccnc2)oc2nc(-c3ccco3)cc(-c3ccco3)c12 | inconclusive: 14.1 µM [inhibitor, partial curve, poor fit] | – |
| Cc1ccc(C(=O)Nc2cccc(Oc3ccccc3)c2)o1 | – | inactive: -10.8% |
| CCOc1cc(CNS(=O)(=O)c2cn(C)cn2)cc(OCC)c1OCC | – | inactive: 21% |
| CC(Sc1nc2ccc(C(=O)c3ccccc3)cc2[nH]1)C(=O)O (stereo not drawn) | – | inactive: 15.1% |
| Fc1ccc(Nc2nc(SCc3ccccc3F)nc3ccccc23)cc1 | – | inactive: 19.4% |
| CCOc1cc(/C=C2/C(=O)NN(c3cccc(Cl)c3)C2=O)ccc1O | inconclusive: 14.1 µM [inhibitor, full curve, poor fit] | – |
| NC(=O)c1ccsc1NC(=O)CN1C(=O)NC2(CCCCC2)C1=O | inconclusive: 22.4 µM [inhibitor, full curve, poor fit] | – |
| CN(C)S(=O)(=O)c1ccc2c(c1)N(CC(=O)Nc1ccc(F)cc1)C(=O)CS2 | – | inactive: 20.9% |
| O=C(NNc1nc(-c2ccc(F)cc2)cs1)c1ccccc1 | – | inactive: 60.8% |
| CCOc1ccc2nc(N3CCCC(C(=O)Nc4ccc(OC)c(Cl)c4)C3)sc2c1 (stereo not drawn) | – | inactive: 26.5% |
| CCC(C(=O)Nc1cc(C)nn1-c1nc(C)cc(C)n1)c1ccccc1 (stereo not drawn) | inconclusive: 112 µM [inhibitor, single point] | – |
| CSc1ccc(C(=S)N2CCCCCC2)cc1 | inconclusive: 14.1 µM [inhibitor, partial curve, poor fit] | – |
| CC(C)c1ccc(NS(=O)(=O)c2ccc3[nH]cc(C(=O)NCC4CCCO4)c(=O)c3c2)cc1 (stereo not drawn) | active: 79.4 µM | – |
| O=C(CSc1nnc2ccccn12)NNC(=O)c1ccc([N+](=O)[O-])cc1 | inconclusive: 89.1 µM [inhibitor, single point] | – |
| O=C1/C(=C\c2ccco2)SC(=S)N1c1ccccc1 | inconclusive: 20 µM [inhibitor, full curve, poor fit] | – |
| CC(=O)NC(NC(C)=O)c1cccc(OCc2ccccc2)c1 | inconclusive: 89.1 µM [inhibitor, partial curve] | – |

Given as comma-separated lines: entries from further up
Compound,Potency,"activity, negative = inhibition"
N#Cc1c(-n2ncnc2-c2cccc(Br)c2)sc2c1CCCCC2,"inconclusive: 89.1 µM [inhibitor, single point]",–
O=C1/C(=C\c2ccco2)SC(=S)N1c1ccccc1,"inconclusive: 20 µM [inhibitor, full curve, poor fit]",–

Following part

| Compound | Potency | activity, negative = inhibition |
| --- | --- | --- |
| CCOc1cc(CNc2ccc(N3CCCC3)cc2)cc(Cl)c1OC | inconclusive: 15.8 µM [inhibitor, partial curve, poor fit] | – |
| Cc1ccc2nc(Cc3ccc(N)cc3)oc2c1 | inconclusive: 35.5 µM [inhibitor, partial curve, poor fit] | – |
| Cc1cc(C(=O)NC2CCCc3c2cnn3-c2ccc(C)c(C)c2)n(C)n1 (stereo not drawn) | inconclusive: 89.1 µM [inhibitor, single point] | – |
| O=C1NC(c2ccco2)Nc2sc3c(c21)CCN(Cc1ccccc1)C3 (stereo not drawn) | inconclusive: 10 µM [inhibitor, partial curve, poor fit] | – |
| O=C(CCN1C(=O)/C(=C/c2ccc3c(c2)OCO3)SC1=S)Nc1ccccc1 | – | inactive: 18% |
| COc1ccccc1NC(=O)Nc1cnccn1 | – | inactive: 29.9% |
| O=C(O)c1ccc(C(=O)c2ccc3c(c2)C(=O)N(Cc2ccco2)C3=O)cc1 | – | inactive: -20.1% |
| COc1ccc(-c2cc(C(=O)N3CCCCC3)c3ccccc3n2)cc1OC | inconclusive: 89.1 µM [inhibitor, single point] | – |
| N#Cc1ccc(CC(C(=O)O)N2Cc3ccccc3C2=O)cc1 (stereo not drawn) | inconclusive: 1.78 µM [inhibitor, partial curve, poor fit] | – |
| CCc1ccc2c(c1)cc(CN(C(=S)Nc1cccc(C)c1)C1CC1)c1nnnn12 | active: 100 µM | – |
| COc1ccc(NC(=S)NC(NC(=O)c2cccc(C)c2)C(Cl)(Cl)Cl)c([N+](=O)[O-])c1 (stereo not drawn) | inconclusive: 39.8 µM [inhibitor, single point] | – |
| O=C(CN1CCN(C(=O)c2ccco2)CC1)N1CCc2[nH]c3ccccc3c2C1 | – | inactive: 75.7% |
| C1=C(N2CCOCC2)/C(=C/c2nc3ccccc3[nH]2)CC1 | active: 14.1 µM | – |
| COc1cc(N2C(=O)c3ccccc3C2=O)c(Cl)cc1C(=O)OCC(=O)NCc1ccco1 | inconclusive: 22.4 µM [inhibitor, full curve] | – |
| COc1cc(NC(=O)CCS(=O)(=O)c2nc(-c3ccc4c(c3)OCO4)cc(C(F)(F)F)n2)cc(OC)c1OC | inconclusive: 20 µM [inhibitor, full curve] | – |
| N#CCc1ccc(NC(=O)Nc2cccc(Cl)c2)cc1 | inconclusive: 89.1 µM [inhibitor, partial curve, poor fit] | – |
| Cc1cc(NC(=O)CSc2cn(CCNC(=O)c3ccccc3)c3ccccc23)no1 | inconclusive: 31.6 µM [inhibitor, full curve, poor fit] | – |
| Cc1ccc(C(C[N+](=O)[O-])c2c(-c3ccccc3O)[nH][nH]c2=O)cc1 (stereo not drawn) | inconclusive: 25.1 µM [inhibitor, partial curve, poor fit] | – |
| CN(Cc1ccccc1)Cc1nc2c(c(=O)n(C)c(=O)n2C)n1Cc1ccc(Cl)cc1 | – | inactive: 8.11% |
| C/C(=N/NC(N)=S)c1cc2ccc(O)cc2oc1=O | inconclusive: 7.94 µM [inhibitor, full curve, poor fit] | – |
| O=C(c1cc(-c2ccccc2)nn1CC1CC(c2cccnc2)=NO1)N1CCOCC1 (stereo not drawn) | inconclusive: 10 µM [inhibitor, full curve, poor fit] | – |

— PubChem BioAssay AID588590 (National Center for Advancing Translational Sciences (NCATS), 2011)
